From patent US20240139125A1 (INDUSTRIAL COOPERATION FOUNDATION JEONBUK NATIONAL …, priority 2020, published 2024)
At least one structure is not confirmed: it was looked up by name or label, or the drawing left a doubt.

System: SARS-CoV2 virus
Experiment: MTT cell viability of Vero E6 cells infected with SARS-CoV2
Type: cell-based
Conditions: Vero E6, SARS-CoV2, 2 μM, 5 μM, or 10 μM, compared to infected control
Experimental: Vero E6 cells, monkey kidney cell masters, were dispensed at 1×10^4 cells/well per well in 96 well plates and incubated at 37° C., 5% CO2 incubators for 24 hours. SARS-CoV2 to infect Vero E6 cells was S ARS-CoV 43326 distributed from the National Pathogen Resource Bank, and DMEM (2% FBS, 1% antibiotic-antimycotic) medium was dispensed at 100 μL/well to infect 0.1 MOI. For 1 hour The virus was removed after 1 hour of infection in a 37° C., 5% CO2 incubator.
Next, samples prepared so that BIA or analogue compounds were finally 500 nM were dispensed 100 μL/well, including the culture medium, and then treated in a 37° C., 5% CO2 incubator for 24 hours. In the same way, the group treated with 2 μM, 5 μM, or 10 μM of Remdesivir (Rem) was a positive control.
Check the condition of the cells, add 100 μL/well of 0.5 mg/ml MTT solution, react in a 37° C., 5% CO2 incubator for 4 hours, wash out the media, and DMSO to the cells by 100 μL/well After sufficient dissolution, absorbance was measured at 540 nm with a plate reader to evaluate cell viability.
To confirm the possibility of viral prevention and therapeutic effects of BIA and its analogue compounds, 500 nM treatment of BIA analogue at the same time as viral infection, and then MTT assay whether the viability of cells against viral infection is improved after 24 hours. The results confirmed are shown in the graph of FIG. 82.

For CCC(CC)COC(=O)[C@H](C)N[P@](=O)(OC[C@H]1O[C@@](C#N)(c2ccc3c(N)ncnn23)[C@H](O)[C@@H]1O)Oc1ccccc1 [remdesivir, reference compound], the cell survival was “increased in a concentration-dependent manner”.
